According to patent US20240174748A1 (INNATE PHARMA, published 2024):
No constants are given. Whether binding was seen depends on the method and setting. Some results given as binding are weak or reduced against the parent protein; the word gives no strength.

Chains of the proteins cited; added tags and fusions are not shown. Lines headed by an entry give the natural chain unless they say otherwise; changes in a name come on top.
UniProt P55899: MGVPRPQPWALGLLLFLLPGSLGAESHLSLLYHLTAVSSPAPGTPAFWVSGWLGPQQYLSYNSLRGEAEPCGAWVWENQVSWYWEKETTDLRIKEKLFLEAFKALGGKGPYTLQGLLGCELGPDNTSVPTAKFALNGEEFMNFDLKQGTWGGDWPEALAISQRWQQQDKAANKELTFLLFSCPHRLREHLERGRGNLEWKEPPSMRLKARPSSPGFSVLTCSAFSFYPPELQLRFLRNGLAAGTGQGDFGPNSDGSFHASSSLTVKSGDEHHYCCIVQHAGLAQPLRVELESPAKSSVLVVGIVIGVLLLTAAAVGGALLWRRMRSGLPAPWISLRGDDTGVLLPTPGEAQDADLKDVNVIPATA
UniProt P61769: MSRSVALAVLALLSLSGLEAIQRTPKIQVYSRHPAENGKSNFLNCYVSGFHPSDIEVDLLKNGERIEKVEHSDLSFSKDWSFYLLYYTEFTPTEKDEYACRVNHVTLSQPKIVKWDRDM
UniProt O76036: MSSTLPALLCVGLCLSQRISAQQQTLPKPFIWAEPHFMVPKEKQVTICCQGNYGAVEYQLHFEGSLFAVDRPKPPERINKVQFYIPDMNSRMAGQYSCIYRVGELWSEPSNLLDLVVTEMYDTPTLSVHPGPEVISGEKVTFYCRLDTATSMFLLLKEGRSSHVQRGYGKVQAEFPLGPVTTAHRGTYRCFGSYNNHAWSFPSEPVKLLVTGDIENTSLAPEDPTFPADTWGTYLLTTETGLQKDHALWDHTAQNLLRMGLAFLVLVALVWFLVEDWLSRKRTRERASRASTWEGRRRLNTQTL

B1: CD19-F4-NKp46-3 (bispecific antibody)
chain: DIQLTQSPASLAVSLGQRATISCKASQSVDYDGDSYLNWYQQIPGQPPKLLIYDASNLVSGIPPRFSGSGSGTDFTLNIHPVEKVDAATYHCQQSTEDPWTFGGGTKLEIKGGGGSGGGGSGGGGSQVQLQQSGAELVRPGSSVKISCKASGYAFSSYWMNWVKQRPGQGLEWIGQIWPGDGDTNYNGKFKGKATLTADESSSTAYMQLSSLASEDSAVYFCARRETTTVGRYYYAMDYWGQGTTVTVSSGGGSSAPELLGGPSVFLFPPKPKDTLMISRTPEVTCVVVDVSHEDPEVKFNWYVDGVEVHNAKTKPREEQYSSTYRVVSVLTVLHQDWLNGKEYKCKVSNKALPAPIEKTISKAKGQPREPQVYTLPPSREEMTKNQVSLTCLVKGFYPSDIAVEWESNGQPENNYKTTPPVLDSDGSFFLYSKLTVDKSRWQQGNVFSCSVMHEALHNHYTQKSLSLSPGGGGGSGGGGSGGGGSGQPREPQVYTLPPSREEMTKNQVSLTCLVKGFYPSDIAVEWESNGQPENNYKTTPPVLDSDGSFFLYSKLTVDKSRWQQGNVFSCSVMHEALHNHYTQKSLSLSPGSTGSEVQLQQSGPELVKPGASVKISCKTSGYTFTEYTMHWVKQSHGKSLEWIGGISPNIGGTSYNQKFKGKATLTVDKSSSTAYMELRSLTSEDSAVYYCARRGGSFDYWGQGTTLTVSSVEGGSGGSGGSGGSGGVDDIVMTQSPATLSVTPGDRVSLSCRASQSISDYLHWYQQKSHESPRLLIKYASQSISGIPSRFSGSGSGSDFTLSINSVEPEDVGVYYCQNGHSFPLTFGAGTKLELK
B2: CD19-F11-NKp46-3 (bispecific antibody)
chain 1: DIQLTQSPASLAVSLGQRATISCKASQSVDYDGDSYLNWYQQIPGQPPKLLIYDASNLVSGIPPRFSGSGSGTDFTLNIHPVEKVDAATYHCQQSTEDPWTFGGGTKLEIKGGGGSGGGGSGGGGSQVQLQQSGAELVRPGSSVKISCKASGYAFSSYWMNWVKQRPGQGLEWIGQIWPGDGDTNYNGKFKGKATLTADESSSTAYMQLSSLASEDSAVYFCARRETTTVGRYYYAMDYWGQGTTVTVSSGGGSSAPELLGGPSVFLFPPKPKDTLMISRTPEVTCVVVDVSHEDPEVKFNWYVDGVEVHNAKTKPREEQYSSTYRVVSVLTVLHQDWLNGKEYKCKVSNKALPAPIEKTISKAKGQPREPQVYTLPPSREEMTKNQVSLTCLVKGFYPSDIAVEWESNGQPENNYKTTPPVLDSDGSFFLYSKLTVDKSRWQQGNVFSCSVMHEALHNHYTQKSLSLSPGGGGGSGGGGSGGGGSGQPREPQVYTLPPSREEMTKNQVSLTCLVKGFYPSDIAVEWESNGQPENNYKTTPPVLDSDGSFFLYSKLTVDKSRWQQGNVFSCSVMHEALHNHYTQKSLSLSPGSTGSEVQLQQSGPELVKPGASVKISCKTSGYTFTEYTMHWVKQSHGKSLEWIGGISPNIGGTSYNQKFKGKATLTVDKSSSTAYMELRSLTSEDSAVYYCARRGGSFDYWGQGTTLTVSSRTVAAPSVFIFPPSDEQLKSGTASVVCLLNNFYPREAKVQWKVDNALQSGNSQESVTEQDSKDSTYSLSSTLTLSKADYEKHKVYACEVTHQGLSSPVTKSFNRGEC
chain 2: DIVMTQSPATLSVTPGDRVSLSCRASQSISDYLHWYQQKSHESPRLLIKYASQSISGIPSRFSGSGSGSDFTLSINSVEPEDVGVYYCQNGHSFPLTFGAGTKLELKASTKGPSVFPLAPSSKSTSGGTAALGCLVKDYFPEPVTVSWNSGALTSGVHTFPAVLQSSGLYSLSSVVTVPSSSLGTQTYICNVNHKPSNTKVDKRVEPKSCDKTH

How the values were obtained:
[1] = biological target: Human FcRn (recombinant) (human) (UniProt P55899+P61769); experiment: SPR, human FcRn immobilized on CM5
[2] = biological target: Human NKp46 recombinant protein (human) (UniProt O76036); experiment: SPR, bispecific captured on Protein-A chip

Binder | binding [1] | binding [2]
B1 | binds | –
B2 | binds | binds
